Measured values published in PubChem BioAssay AID2685 (National Center for Advancing Translational Sciences (NCATS), 2010).
This is one part of the list. The main result of the screen is listed elsewhere. These columns were measured beside it and carry no call. Compounds called inactive in the main read-out are mostly missing here. The note in brackets gives the kind of curve behind each potency; many fits are weak.

Assay: qHTS Assay for Lipid Storage Modulators in Drosophila S3 Cells;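 on cell number change: cells counted by Cell Tracker Red CMTPX staining in the red channel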
Conditions: BODIPY lipid droplet fluorescence, 18-24 h; for cell number change: measured here: cell count max response, cells fed with added oleic acid
Summary of the method: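 Drosophila S3 cells got compounds at several concentrations plus oleic acid (400 uM solution). Laser-scanning cytometry with 488 nm excitation read lipid droplets at 500-530 nm and cells at 575-640 nm. Percent activity was relative to 20 uM Triacsin C.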

[1] = measured here: lipid fluorescence (Fed channel) AC50, cells fed with added oleic acid
[2] = measured here: cell number channel AC50, cells fed with added oleic acid

| Structure (SMILES) | cell number change | AC50 [1] | AC50 [2] |
| --- | --- | --- | --- |
| CN(C)S(=O)(=O)Oc1ccc(C(=O)Nc2ccc([N+](=O)[O-])cc2)cc1 | 18.7% | 0.651 µM [rising, single point] |  |
| CN1C(=O)CC(C(=O)O)SC1=Nc1cccc(C(F)(F)F)c1 (configuration not stated) | -23.9% | 29.1 µM [falling, partial curve, poor fit] |  |
| CCOC(=O)N1CCC(c2cc(=O)n3[nH]ccc3n2)CC1 |  | 14.6 µM [rising, partial curve] |  |
| C[C@@H]1CC=C[C@H]2[C@H]1C(=O)N(Cc1ccccc1)[C@H]2c1ccc(F)c(Br)c1 | -68.3% |  | 29.1 µM [falling, single point] |
| O=c1c2ccccc2n(CC(O)CN2CCCCC2)c2ccccc12 (configuration not stated) | 18.2% | 29.1 µM [falling, single point] |  |
| CCOc1cccc(NC(=O)CSc2nncn2N)c1 | -18.1% | 0.164 µM [falling, full curve, poor fit] |  |
| COc1ccccc1C(=O)NCCc1c(C)[nH]c2c(C)ccc(F)c12 | -9.71% | 1.64 µM [rising, partial curve] | 0.146 µM [falling, full curve, poor fit] |
| COc1cc(-n2c(C)nc3cccnc32)c(Cl)cc1C(=O)O | 7.04% |  |  |
| S=c1[nH]ncc2ccccc12 | -2.1% | 4.11 µM [rising, single point] |  |
| CCOc1ccccc1NC(=S)NCc1ccco1 | 106% | 29.1 µM [rising, single point] | 16.4 µM [rising, partial curve] |
| Cn1c(=O)c2c(SCC(=O)N3CCOCC3)nc(CC(C)(C)C)nc2n(C)c1=O | -30.4% | 2.31 µM [falling, full curve] | 2.31 µM [falling, full curve, poor fit] |
| COc1cc(OC)cc(-c2nnc(SCC(=O)N(Cc3ccccc3)C(C)(C)C)o2)c1 | -25% | 29.1 µM [falling, single point] |  |
| CCn1nnc2cc(C(=O)NCC(c3ccccc3OC)N(C)C)ccc21 (configuration not stated) | -17.1% | 35.5 µM [rising, single point] |  |
| CCc1ccc(S(=O)(=O)NCc2cn3ccsc3n2)s1 |  | 0.731 µM [rising, single point] |  |
| CCn1nnnc1SCC(=O)N1c2ccccc2CCc2ccccc21 |  | 9.2 µM [rising, partial curve] |  |
| CCOc1ccc(-c2nc(CSCC(=O)NCC3CCCO3)c(C)o2)cc1 (configuration not stated) | -13% | 23.1 µM [rising, single point] |  |
| Cc1ccc(N(CC(=O)N2CCCCCC2)S(=O)(=O)c2ccccc2)cc1 | 0.87% |  |  |
| Cc1ccc(C(=O)Nc2ccc(S(=O)(=O)N3CCc4ccccc4C3)cc2)o1 | -1.49% | 5.8 µM [rising, partial curve] |  |
| Cc1cc(C)c2nc(N3CCC(C(=O)N4CCCC4)CC3)sc2c1 | -37.1% | 29.1 µM [falling, single point] | 29.1 µM [falling, single point] |
| CCC1(CC)C(=O)N(C)C(=O)NC1=NCc1ccccc1 | -33.2% | 4.61 µM [falling, full curve] | 1.64 µM [falling, full curve, poor fit] |
| C/C(=N/NC(=O)C(=O)N/N=C(/C)c1ccccc1)c1ccccc1 |  |  | 0.00411 µM [rising, full curve, poor fit] |

| Structure (SMILES) | cell number change | AC50 [1] | AC50 [2] |
| --- | --- | --- | --- |
| COC(=O)c1ccc(Oc2nc(N(C)C)nc(N3CCOCC3)n2)cc1 | -18.4% |  | 0.103 µM [rising, full curve, poor fit] |
| O=C(CSc1nc2ccccc2s1)Nc1ccc2c(c1)OCO2 | -12.4% | 13 µM [rising, single point] |  |
| CN1CCC(OC(=O)c2cccc(Cl)c2)CC1 | 16.6% |  |  |
| Cc1ccc(-c2csc(N(CCO)CCCn3c(C(F)(F)F)nc4cc(C(F)(F)F)ccc43)n2)cc1 | -34.1% | 20.6 µM [falling, single point] | 20.6 µM [falling, partial curve, poor fit] |
| O=C(CN1CCN(c2nc(-c3ccc(F)cc3)cs2)CC1)Nc1ccc2c(c1)OCO2 | 6.33% | 20.6 µM [rising, single point] |  |
| O=S(=O)(c1ccccc1)c1cnc2ccccc2c1 | 22.5% |  |  |
| OCCn1c(SCCOc2ccccc2F)nc2ccccc21 |  |  | 2.91 µM [rising, partial curve] |
| O=C1C=C(c2ccc(-c3ccccc3)c(F)c2)C[C@@H](c2ccc(Cl)cc2)C1 | -44.1% |  | 20.6 µM [falling, single point] |
| COCCn1c(SCC#N)nnc1-c1ccc2c(c1)OCO2 | -18% | 4.61 µM [rising, single point] |  |
| COc1cc(/C=N/n2nnnc2N)ccc1O | -1.38% | 10.3 µM [falling, partial curve] |  |
| O=C(N/N=C/c1c(O)ccc2ccccc12)c1ccc[n+](CCO)c1 | -133% | 23.1 µM [falling, partial curve] | 23.1 µM [falling, partial curve] |
| Cc1ccc(C)c(OCCn2ccnc2)c1 | 11.3% | 29.1 µM [falling, single point] |  |
| CCN(CC(=O)N1CCc2ccccc2C1)S(=O)(=O)c1ccc2ccccc2c1 |  | 6.51 µM [falling, single point] |  |
| COc1ccc(NC(=O)Nc2cc(C(C)(C)C)on2)cc1OC | 2.7% | 29.1 µM [falling, single point] |  |
| Cn1c(=O)[nH]c(=O)c2c1nc(N1CCN(Cc3ccccc3)CC1)n2CCSc1ncccn1 | 5.19% |  | 2.91 µM [falling, single point] |
| CC1(C)CC(=O)C=C(C(=O)N2CCCC(C(=O)c3cccc(Cl)c3)C2)O1 (configuration not stated) | -10.3% | 29.1 µM [falling, single point] |  |
| COC(=O)CSc1nnc(-c2ccc(S(=O)(=O)NCc3ccccc3Cl)cc2)o1 | -12.4% | 2.06 µM [falling, partial curve, poor fit] |  |
| O=C(N/N=C1/CCSC1)c1cccc([N+](=O)[O-])c1 | -52.5% | 4.61 µM [rising, single point] | 29.1 µM [falling, single point] |
| Cc1ccc(Cn2ccc(NC(=O)c3cc(C(C)C)on3)n2)cc1 | 20.4% | 23.1 µM [falling, partial curve] |  |
| Cc1onc(-c2ccccc2)c1C(=O)Nc1ccc2c(C)cc(=O)oc2c1 | -12.4% |  |  |
| COc1ccc(/C=C(/NC(=O)c2ccco2)C(=O)N2CCCC2=O)cc1 | 24.6% | 13 µM [rising, partial curve] |  |

2 records drawn at random from the list so far, as already listed:

| Structure (SMILES) | cell number change | AC50 [1] | AC50 [2] |
| --- | --- | --- | --- |
| COC(=O)CSc1nnc(-c2ccc(S(=O)(=O)NCc3ccccc3Cl)cc2)o1 | -12.4% | 2.06 µM [falling, partial curve, poor fit] |  |
| CCOc1ccccc1NC(=S)NCc1ccco1 | 106% | 29.1 µM [rising, single point] | 16.4 µM [rising, partial curve] |

Remaining list, next part.

| Structure (SMILES) | cell number change | AC50 [1] | AC50 [2] |
| --- | --- | --- | --- |
| CC(C)Cc1nnc(NC(=O)CCC(=O)NCCc2ccccc2)s1 | 15% |  |  |
| CC1CCCCC12NC(=O)N(CC(=O)N1CCN(S(=O)(=O)/C=C/c3ccccc3)CC1)C2=O (configuration not stated) | -10.1% | 6.51 µM [falling, single point] |  |
| O=C(CCNS(=O)(=O)c1cccc2nonc12)Nc1ccc(Cl)cc1 | 14.2% | 0.517 µM [rising, partial curve, poor fit] |  |
| Fc1ccc(/C=N/Nc2ncnc3nc[nH]c23)cc1F | -7.07% | 0.206 µM [falling, full curve, poor fit] |  |
| CCn1c(SCC(=O)NCc2ccco2)nnc1-c1c[nH]c2ccccc12 | 13.3% |  |  |
| FC(F)(F)c1cccc(NC(=S)NC(c2ccccc2)c2ccccc2)c1 | -54.1% | 5.17 µM [falling, partial curve] | 6.51 µM [falling, partial curve] |
| COC(=O)c1cc(=O)n(Cc2ccc3c(c2)OCO3)c(=Nc2ccc(F)cc2)s1 | 33.5% | 2.31 µM [rising, partial curve] | 0.651 µM [rising, full curve, poor fit] |
| COc1cc2c(cc1OC)C(c1ccccc1O)NCC2 (configuration not stated) | 2.21% | 23.1 µM [rising, partial curve] |  |
| CC(C)c1nc2c(c(=O)n(C)c(=O)n2C)n1C | -12.5% | 0.291 µM [falling, full curve, poor fit] |  |
| Cc1cc(NC(=O)c2cc3cccc([N+](=O)[O-])c3[nH]2)ccc1F | 0.763% | 1.64 µM [rising, partial curve, poor fit] |  |
| CCOC(=O)C(=NC(C)CC)NNc1ccc(Br)cc1 (configuration not stated) | -10.8% |  |  |
| C/C(=N\Nc1nc(C(C)(C)C)cs1)c1ccc(O)cc1 | -26.7% | 0.651 µM [falling, full curve] | 1.03 µM [falling, full curve, poor fit] |
| COC(=O)c1c(NC(=O)CC2Nc3cc(C)c(C)cc3NC2=O)sc(C)c1C (configuration not stated) | 31.2% |  | 1.64 µM [rising, partial curve, poor fit] |
| CCN(CC)CCNC(=O)CCN1N=C(c2ccccc2)CCC1=O | 19.9% |  |  |
| CC(=O)N1N=C(c2ccccc2)CC1c1cccc([N+](=O)[O-])c1 (configuration not stated) | 9.12% | 2.91 µM [falling, single point] |  |
| Cc1cccnc1NC(=O)Nc1cccc(Cl)c1 | -12.3% |  |  |
| COC(=O)c1sc(-c2ccc(Cl)cc2)cc1NC(=O)c1ccccc1C(=O)O | 5.67% | 5.8 µM [rising, full curve, poor fit] |  |
| CCN(c1ccc(NC(=O)COC(=O)C(C)N=C2NS(=O)(=O)c3ccccc32)cc1)C(C)C (configuration not stated) | -38% |  | 10.3 µM [falling, partial curve, poor fit] |
| COc1ccc(NC(=O)C2CCCN2S(=O)(=O)c2cccs2)c([N+](=O)[O-])c1 (configuration not stated) | 65.5% |  | 16.4 µM [rising, partial curve] |
